Measurements published in paper PMC8053085, “Di-phosphorylated BAF shows altered structural dynamics and binding to DNA, but interacts with its nuclear envelope partners” (Nucleic Acids Research, 2021).
These are yes or no findings as the source states them, for the method shown. Some results given as binding are weak or reduced against the parent protein; the word gives no strength.

By UniProt entry, the sequences of proteins in these tests, tags left out. Residues count along the entry.
UniProt P02545, residues 411-566: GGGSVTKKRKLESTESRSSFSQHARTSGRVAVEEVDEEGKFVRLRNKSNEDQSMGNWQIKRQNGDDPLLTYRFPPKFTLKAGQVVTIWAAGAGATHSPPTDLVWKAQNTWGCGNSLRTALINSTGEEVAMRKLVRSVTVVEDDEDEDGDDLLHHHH

T1: Di-phosphorylated BAF (BAF phosphorylated by VRK1 on Thr3 and Ser4) (human) (UniProt O75531)
T1 sequence (chain, phosphothreonine at 3, phosphoserine at 4): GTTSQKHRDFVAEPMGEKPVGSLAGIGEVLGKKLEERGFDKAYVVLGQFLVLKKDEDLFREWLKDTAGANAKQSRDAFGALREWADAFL

T2: BAF S4E (phosphomimetic variant of the BAF construct) (human) (UniProt O75531)
T2 sequence: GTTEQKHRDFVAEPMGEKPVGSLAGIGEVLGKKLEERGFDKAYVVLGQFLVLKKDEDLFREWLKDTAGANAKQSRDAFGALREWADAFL


What was measured:
[1] = target: T1, Di-phosphorylated BAF (BAF phosphorylated by VRK1 on Thr3 and Ser4) (human); assay: NMR titration; 2D 1H-15N HSQC of 80 μM 15N LamIgF alone, with 160 μM BAF S4E or pBAF, then 80 μM EmN or LEM; control with 80 μM EmN alone; 50 mM HEPES pH 7.4, 100 mM NaCl, 20°C, 700 MHz; loss of peak intensity; both purified
[2] = target: Complex of pBAF and LamIgF (pBAF-Igfold complex) (human) (UniProt O75531+P02545); assay: as above
[3] = target: T2, BAF S4E (phosphomimetic variant of the BAF construct) (human); assay: as above
[4] = target: T1, Di-phosphorylated BAF (BAF phosphorylated by VRK1 on Thr3 and Ser4) (human); assay: crystal structure; pBAF-EmN complex purified by gel filtration, 2 mg/ml; sitting drop, 0.1 M HEPES pH 7.5, PEG 6000 25%; 1.4 Å; both purified
[5] = target: IgFold domain of human lamin A/C from amino acid 411 to amino acid 566 (human) (UniProt P02545); assay: NMR titration; 2D 1H-15N HSQC of 80 μM 15N LamIgF alone, with 160 μM BAF S4E or pBAF, then 80 μM EmN or LEM; control with 80 μM EmN alone; 50 mM HEPES pH 7.4, 100 mM NaCl, 20°C, 700 MHz; loss of peak intensity; both purified
[6] = target: T1, Di-phosphorylated BAF (BAF phosphorylated by VRK1 on Thr3 and Ser4) (human); assay: crystal structure; pBAF dimer alone, 20 mg/ml; sitting drop, 0.2 M sodium fluoride, 20% PEG 3350; 3.2 Å; both purified

| Binder | binding [1] | binding [2] | binding [5] | other results |
| --- | --- | --- | --- | --- |
| Nucleoplasmic region of human emerin from amino acid 1 to amino acid 187 (domain or fragment, UniProt P50402 1-187) MDNYADLSDTELTTLLRRYNIPHGPVVGSTRRLYEKKIFEYETQRRRLSPPSSSAASSYSFSDLNSTRGDADMYDLPKKEDALLYQSKGYNDDYYEESYFTTRTYGEPESAGPSRAVRQSVTSFPDADAFHHQVHDDDLLSSSEEECKDRERPMYGRDSAYQSITHYRPVSASRSSLDLSYYPTSSS | binds | binds |  | binding [3]: binds; binding [4]: binds |
| MDNYADLSDTELTTLLRRYNIPHGPVVGSTRRLYEKKIFEYETQRR (domain or fragment, UniProt P50402 1-46, looked up, human emerin, residues 1-46 (LEM domain); also called emerin LEM domain; LEM fragment) [LEM domain of human emerin from amino acid 1 to amino acid 46] | binds | binds |  |  |
| BAF S4E (phosphomimetic variant of the BAF construct) (protein, UniProt O75531 1-89) GTTEQKHRDFVAEPMGEKPVGSLAGIGEVLGKKLEERGFDKAYVVLGQFLVLKKDEDLFREWLKDTAGANAKQSRDAFGALREWADAFL |  |  | binds |  |
| Complex between BAF S4E and EmN (complex, UniProt O75531 1-89; P50402 1-187) chain 1: GTTEQKHRDFVAEPMGEKPVGSLAGIGEVLGKKLEERGFDKAYVVLGQFLVLKKDEDLFREWLKDTAGANAKQSRDAFGALREWADAFL chain 2: MDNYADLSDTELTTLLRRYNIPHGPVVGSTRRLYEKKIFEYETQRRRLSPPSSSAASSYSFSDLNSTRGDADMYDLPKKEDALLYQSKGYNDDYYEESYFTTRTYGEPESAGPSRAVRQSVTSFPDADAFHHQVHDDDLLSSSEEECKDRERPMYGRDSAYQSITHYRPVSASRSSLDLSYYPTSSS |  |  | binds |  |
| Di-phosphorylated BAF (BAF phosphorylated by VRK1 on Thr3 and Ser4) (natural protein, human, UniProt O75531 1-89, looked up, phosphothreonine at 3, phosphoserine at 4, human barrier-to-autointegration factor (BANF1), an 89-aa protein; residue 1 is a glycine left by the TEV site instead of the native methionine; all four cysteines mutated into alanine; phosphorylated on Thr3 and Ser4; Same construct as m1, then phosphorylated; also called pBAF; not shown: His tag, N-terminal, cleaved) GTTSQKHRDFVAEPMGEKPVGSLAGIGEVLGKKLEERGFDKAYVVLGQFLVLKKDEDLFREWLKDTAGANAKQSRDAFGALREWADAFL |  |  | binds | binding [6]: binds |
